# Laboratory results taken from publication PMC10126118.
# No constants are given. Whether binding was seen depends on the method and setting. In cells and extracts the contact can be indirect. Some results given as binding are weak or reduced against the parent protein; the word gives no strength. For part of these data: Where a sequence is shown, tags or fusion partners need not be part of it.
# B1: TMEM25, overexpressed in HEK293T (Fig. 4f) (protein, UniProt Q86YD3 27-366)
# chain: ELEPQIDGQTWAERALRENERHAFTCRVAGGPGTPRLAWYLDGQLQEASTSRLLSVGGEAFSGGTSTFTVTAHRAQHELNCSLQDPRSGRSANASVILNVQFKPEIAQVGAKYQEAQGPGLLVVLFALVRANPPANVTWIDQDGPVTVNTSDFLVLDAQNYPWLTNHTVQLQLRSLAHNLSVVATNDVGVTSASLPAPGLLATRVEVPLLGIVVAAGLALGTLVGFSTLVACLVCRKEKKTKGPSRHPSLISSDSNNLKLNNVRLPRENMSLPSNLQLNDLTPDSRAVKPADRQMAQNNSRPELLDPEPGGLLTSQGFIRLPVLGYIYRVSSVSSDEIWL
# B2: TMEM25, endogenous in MDA-MB-231 cells (protein, UniProt Q86YD3 27-366)
# chain: B1 chain
# B3: C-terminal green fluorescent protein (GFP)-tagged TMEM25, full length (F) (protein, UniProt Q86YD3 27-366)
# chain: B1 chain
# Columns and labels:
# [1] = molecular target: C-terminal hemagglutinin (HA)-tagged EGFR (human) (UniProt P00533); experiment: co-IP; HEK293T cells transfected with indicated combinations of tagged constructs, Co-IP assay; precipitating antibody not told; with increasing TMEM25 in Fig. 4f
# [2] = molecular target: EGFR, endogenous in MDA-MB-231 cells (human (endogenous in MDA-MB-231)) (UniProt P00533); experiment: co-IP; endogenous proteins, MDA-MB-231 cell lysates (TNTE 0.5% Triton X-100 lysis buffer, protein G agarose, 4 °C, 3 h); anti-TMEM25 IP or anti-EGFR IP; wild-type or TMEM25 knockout cells for EGFR with STAT3
# [3] = molecular target: C-terminal Flag-tagged EGFR, full length (F) (human) (UniProt P00533); experiment: co-IP; HEK293T cells transfected with tagged constructs; anti-Flag IP followed by immunoblotting; TNTE 0.5% Triton X-100 lysis buffer
binder,measurement,setting,value
B1,binding,[1],binds
B2,binding,[2],binds
B3,binding,[3],binds
